# Measurements: the supplement of paper PMC7666118
# Amino acid sequences for entries named in this document (tags omitted). A change or cut given only in a name is not applied to a line headed by its entry.
# UniProt Q9BRT6: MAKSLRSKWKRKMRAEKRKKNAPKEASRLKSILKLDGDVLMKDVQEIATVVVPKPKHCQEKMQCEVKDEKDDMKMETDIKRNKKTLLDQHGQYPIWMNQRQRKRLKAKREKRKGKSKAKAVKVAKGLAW
# UniProt Q9NQ29: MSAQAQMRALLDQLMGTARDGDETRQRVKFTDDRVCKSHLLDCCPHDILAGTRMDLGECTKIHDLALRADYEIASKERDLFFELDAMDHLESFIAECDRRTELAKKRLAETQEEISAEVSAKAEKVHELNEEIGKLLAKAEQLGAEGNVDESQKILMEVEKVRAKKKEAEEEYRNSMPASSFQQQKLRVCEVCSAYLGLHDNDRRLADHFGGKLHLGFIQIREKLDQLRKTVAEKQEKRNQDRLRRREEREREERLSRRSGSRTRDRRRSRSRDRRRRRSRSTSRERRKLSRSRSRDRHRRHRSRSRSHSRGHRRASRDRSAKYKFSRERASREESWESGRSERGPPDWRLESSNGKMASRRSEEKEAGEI
# UniProt Q9H0B6: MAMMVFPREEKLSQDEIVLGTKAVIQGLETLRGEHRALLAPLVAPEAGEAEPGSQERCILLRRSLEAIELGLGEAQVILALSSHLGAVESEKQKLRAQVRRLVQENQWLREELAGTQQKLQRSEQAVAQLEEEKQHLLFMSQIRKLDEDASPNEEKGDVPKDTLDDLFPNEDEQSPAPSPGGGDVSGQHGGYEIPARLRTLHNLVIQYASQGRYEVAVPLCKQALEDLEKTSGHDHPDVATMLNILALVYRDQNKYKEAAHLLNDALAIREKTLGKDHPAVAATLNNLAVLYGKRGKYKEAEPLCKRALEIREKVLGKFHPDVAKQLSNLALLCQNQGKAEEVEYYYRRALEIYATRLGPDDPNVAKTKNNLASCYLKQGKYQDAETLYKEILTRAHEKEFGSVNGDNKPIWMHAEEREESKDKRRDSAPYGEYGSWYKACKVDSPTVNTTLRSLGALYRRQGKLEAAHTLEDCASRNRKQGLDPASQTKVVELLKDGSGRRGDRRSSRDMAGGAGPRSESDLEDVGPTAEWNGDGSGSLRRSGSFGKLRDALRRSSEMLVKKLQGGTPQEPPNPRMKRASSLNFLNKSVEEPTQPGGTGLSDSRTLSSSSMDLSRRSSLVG
# UniProt Q9Y2K2: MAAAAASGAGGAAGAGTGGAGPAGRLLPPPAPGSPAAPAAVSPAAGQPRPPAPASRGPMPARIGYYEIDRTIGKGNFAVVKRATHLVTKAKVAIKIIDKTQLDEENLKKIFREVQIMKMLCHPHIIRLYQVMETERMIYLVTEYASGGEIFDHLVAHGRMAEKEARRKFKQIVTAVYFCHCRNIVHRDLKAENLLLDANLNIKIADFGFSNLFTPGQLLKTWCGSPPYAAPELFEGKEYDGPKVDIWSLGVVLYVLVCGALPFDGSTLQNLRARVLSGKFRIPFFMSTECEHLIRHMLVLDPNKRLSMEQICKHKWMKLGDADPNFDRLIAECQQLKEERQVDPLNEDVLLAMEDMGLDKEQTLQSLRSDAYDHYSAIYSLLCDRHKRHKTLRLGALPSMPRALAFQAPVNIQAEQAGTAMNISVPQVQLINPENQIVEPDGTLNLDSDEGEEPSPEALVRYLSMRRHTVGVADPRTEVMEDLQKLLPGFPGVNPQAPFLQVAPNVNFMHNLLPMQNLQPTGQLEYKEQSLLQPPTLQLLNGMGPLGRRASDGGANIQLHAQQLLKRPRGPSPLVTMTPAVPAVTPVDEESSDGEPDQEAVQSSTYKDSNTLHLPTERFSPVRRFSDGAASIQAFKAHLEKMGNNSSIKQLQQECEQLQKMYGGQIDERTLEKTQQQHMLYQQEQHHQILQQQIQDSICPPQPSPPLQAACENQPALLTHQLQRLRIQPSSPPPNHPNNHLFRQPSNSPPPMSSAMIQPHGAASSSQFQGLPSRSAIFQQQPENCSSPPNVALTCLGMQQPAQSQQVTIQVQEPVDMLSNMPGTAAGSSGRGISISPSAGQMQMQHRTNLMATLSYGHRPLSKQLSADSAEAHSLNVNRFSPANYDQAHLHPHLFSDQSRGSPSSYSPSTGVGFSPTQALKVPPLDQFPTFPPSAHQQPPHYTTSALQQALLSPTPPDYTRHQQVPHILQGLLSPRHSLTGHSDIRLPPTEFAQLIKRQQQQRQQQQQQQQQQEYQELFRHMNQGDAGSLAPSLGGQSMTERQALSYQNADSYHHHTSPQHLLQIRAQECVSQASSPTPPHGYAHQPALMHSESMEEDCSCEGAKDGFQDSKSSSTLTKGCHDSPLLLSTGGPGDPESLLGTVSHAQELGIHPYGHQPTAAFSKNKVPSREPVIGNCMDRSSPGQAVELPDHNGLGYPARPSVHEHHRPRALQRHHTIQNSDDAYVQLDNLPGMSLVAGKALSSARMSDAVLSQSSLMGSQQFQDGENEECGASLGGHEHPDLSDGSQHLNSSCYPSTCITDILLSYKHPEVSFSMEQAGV
# UniProt O15479: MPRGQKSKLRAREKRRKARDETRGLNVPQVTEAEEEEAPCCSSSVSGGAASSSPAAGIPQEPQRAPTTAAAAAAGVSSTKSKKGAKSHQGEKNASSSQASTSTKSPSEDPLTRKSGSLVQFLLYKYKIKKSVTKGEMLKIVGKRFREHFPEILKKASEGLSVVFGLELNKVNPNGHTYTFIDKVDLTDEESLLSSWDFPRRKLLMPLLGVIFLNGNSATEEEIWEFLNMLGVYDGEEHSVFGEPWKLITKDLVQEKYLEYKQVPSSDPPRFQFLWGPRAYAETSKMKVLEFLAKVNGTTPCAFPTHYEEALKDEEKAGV
# UniProt Q9UKM7: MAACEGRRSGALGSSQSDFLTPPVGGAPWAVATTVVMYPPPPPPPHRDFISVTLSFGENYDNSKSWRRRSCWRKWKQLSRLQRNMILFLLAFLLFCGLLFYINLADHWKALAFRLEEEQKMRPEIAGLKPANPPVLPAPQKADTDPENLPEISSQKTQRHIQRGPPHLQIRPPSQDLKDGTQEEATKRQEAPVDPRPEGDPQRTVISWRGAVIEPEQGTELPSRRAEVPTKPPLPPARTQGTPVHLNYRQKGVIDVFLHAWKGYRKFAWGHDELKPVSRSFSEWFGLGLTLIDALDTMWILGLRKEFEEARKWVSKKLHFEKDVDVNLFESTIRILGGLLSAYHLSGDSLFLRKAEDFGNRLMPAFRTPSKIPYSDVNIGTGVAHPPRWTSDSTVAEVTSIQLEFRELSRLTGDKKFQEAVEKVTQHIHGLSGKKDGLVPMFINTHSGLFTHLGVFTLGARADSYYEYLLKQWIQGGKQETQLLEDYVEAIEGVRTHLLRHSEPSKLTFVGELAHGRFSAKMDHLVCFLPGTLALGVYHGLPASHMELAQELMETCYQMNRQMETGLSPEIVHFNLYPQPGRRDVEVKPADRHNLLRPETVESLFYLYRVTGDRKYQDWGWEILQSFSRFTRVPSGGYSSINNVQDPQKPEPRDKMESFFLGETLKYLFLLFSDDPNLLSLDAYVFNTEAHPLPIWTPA
# UniProt Q9HCE5: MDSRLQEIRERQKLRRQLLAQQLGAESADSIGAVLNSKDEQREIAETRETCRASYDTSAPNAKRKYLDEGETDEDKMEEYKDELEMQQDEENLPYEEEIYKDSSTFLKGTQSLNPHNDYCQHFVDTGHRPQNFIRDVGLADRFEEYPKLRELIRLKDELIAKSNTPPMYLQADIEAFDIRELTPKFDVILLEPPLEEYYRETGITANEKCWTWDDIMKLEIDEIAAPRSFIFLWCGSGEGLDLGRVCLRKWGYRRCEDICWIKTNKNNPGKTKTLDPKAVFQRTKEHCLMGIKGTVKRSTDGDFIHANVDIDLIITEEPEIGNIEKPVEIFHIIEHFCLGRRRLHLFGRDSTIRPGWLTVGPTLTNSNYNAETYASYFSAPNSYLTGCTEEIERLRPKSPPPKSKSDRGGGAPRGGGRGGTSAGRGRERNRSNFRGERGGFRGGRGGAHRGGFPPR
# UniProt Q07866: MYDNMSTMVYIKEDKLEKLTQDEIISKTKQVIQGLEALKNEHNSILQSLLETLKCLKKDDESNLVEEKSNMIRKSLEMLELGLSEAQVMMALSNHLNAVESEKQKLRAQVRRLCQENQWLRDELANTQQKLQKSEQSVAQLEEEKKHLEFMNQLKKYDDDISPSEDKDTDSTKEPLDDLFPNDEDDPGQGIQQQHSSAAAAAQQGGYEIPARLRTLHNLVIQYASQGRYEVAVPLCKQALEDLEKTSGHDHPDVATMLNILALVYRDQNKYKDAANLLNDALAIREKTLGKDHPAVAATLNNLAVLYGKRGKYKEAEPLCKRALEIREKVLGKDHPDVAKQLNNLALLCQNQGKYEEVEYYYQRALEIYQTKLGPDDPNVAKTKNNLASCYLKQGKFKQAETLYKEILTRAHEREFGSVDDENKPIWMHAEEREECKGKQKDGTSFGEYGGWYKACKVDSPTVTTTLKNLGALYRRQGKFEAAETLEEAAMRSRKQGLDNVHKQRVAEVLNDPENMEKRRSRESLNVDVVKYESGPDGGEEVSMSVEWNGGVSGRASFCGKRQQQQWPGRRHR
# UniProt Q538Z0: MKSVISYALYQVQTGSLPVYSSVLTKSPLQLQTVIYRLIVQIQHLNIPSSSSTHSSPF
# UniProt Q96CX6, whole entry: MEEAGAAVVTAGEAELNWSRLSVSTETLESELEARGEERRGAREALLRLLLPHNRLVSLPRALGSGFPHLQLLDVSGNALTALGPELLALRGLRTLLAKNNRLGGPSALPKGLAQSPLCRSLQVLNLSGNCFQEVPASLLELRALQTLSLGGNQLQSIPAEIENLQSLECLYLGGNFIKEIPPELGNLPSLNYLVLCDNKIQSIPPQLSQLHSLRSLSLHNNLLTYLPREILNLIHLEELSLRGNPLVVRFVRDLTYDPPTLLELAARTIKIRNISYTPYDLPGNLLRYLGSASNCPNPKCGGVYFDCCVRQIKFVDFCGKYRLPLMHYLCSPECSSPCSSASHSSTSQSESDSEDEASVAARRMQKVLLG
# UniProt Q9Y383: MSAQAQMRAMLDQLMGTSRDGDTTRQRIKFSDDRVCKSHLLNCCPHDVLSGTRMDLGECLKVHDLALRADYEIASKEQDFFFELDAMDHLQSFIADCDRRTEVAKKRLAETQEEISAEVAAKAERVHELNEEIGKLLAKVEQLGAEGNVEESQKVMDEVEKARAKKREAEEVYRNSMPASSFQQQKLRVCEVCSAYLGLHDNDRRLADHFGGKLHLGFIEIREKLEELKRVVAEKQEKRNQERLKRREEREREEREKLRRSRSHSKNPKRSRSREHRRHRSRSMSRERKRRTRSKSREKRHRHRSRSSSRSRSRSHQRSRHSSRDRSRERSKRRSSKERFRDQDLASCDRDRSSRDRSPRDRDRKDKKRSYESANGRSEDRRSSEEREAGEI
# UniProt Q9P2B7: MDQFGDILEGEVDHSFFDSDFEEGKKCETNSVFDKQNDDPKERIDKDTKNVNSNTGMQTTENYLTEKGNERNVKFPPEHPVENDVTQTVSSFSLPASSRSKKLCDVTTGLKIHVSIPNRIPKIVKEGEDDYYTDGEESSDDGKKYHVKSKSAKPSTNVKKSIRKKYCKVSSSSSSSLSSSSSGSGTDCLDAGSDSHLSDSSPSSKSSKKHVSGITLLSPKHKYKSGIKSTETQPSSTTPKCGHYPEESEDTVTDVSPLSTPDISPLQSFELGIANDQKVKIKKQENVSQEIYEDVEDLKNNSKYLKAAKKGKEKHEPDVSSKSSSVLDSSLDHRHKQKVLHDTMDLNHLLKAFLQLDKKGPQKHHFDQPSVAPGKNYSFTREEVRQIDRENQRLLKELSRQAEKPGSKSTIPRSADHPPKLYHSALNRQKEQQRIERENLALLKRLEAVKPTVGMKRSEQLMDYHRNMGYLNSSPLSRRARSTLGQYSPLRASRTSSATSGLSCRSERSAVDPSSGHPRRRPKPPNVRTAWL
# UniProt P02545: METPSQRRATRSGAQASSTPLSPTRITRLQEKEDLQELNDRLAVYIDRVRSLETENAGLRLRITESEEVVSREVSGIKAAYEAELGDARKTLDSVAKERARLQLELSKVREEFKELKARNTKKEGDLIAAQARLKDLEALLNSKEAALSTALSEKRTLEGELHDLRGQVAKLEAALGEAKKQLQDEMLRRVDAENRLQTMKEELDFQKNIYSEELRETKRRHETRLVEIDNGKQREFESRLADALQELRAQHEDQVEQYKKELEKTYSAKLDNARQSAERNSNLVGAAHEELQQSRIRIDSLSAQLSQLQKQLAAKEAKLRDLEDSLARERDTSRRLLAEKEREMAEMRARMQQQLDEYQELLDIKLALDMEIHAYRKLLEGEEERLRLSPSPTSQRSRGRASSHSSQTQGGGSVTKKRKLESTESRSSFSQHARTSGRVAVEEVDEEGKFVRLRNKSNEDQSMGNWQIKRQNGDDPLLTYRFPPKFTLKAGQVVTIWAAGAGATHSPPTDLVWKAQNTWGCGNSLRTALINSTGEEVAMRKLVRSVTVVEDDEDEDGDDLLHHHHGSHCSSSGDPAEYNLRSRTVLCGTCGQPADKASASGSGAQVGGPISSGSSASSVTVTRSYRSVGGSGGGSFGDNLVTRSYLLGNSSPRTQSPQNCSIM
# The list shows a part of the results.
# Compound: COc1ccc(Cn2ccc3ccc(C(=O)NO)cc32)cc1
# Test: dose-dependent thermal stabilisation call (2D-TPP, DLPTP, 10% FDR) (binary (1 = stabilised)); higher = stabilised by the compound
# Settings: system: HL-60 intact cells; concentration range 0.04-10 µM
row,Target,dose-dependent thermal stabilisation call
1,LOC643284,inactive: 0
2,LOC100131572,inactive: 0
3,LOC727762,inactive: 0
4,LPCAT1 (UniProt Q8NF37),inactive: 0
5,KIAA1219 (UniProt Q86X10),inactive: 0
6,LLPH (UniProt Q9BRT6),inactive: 0
7,LUC7L (UniProt Q9NQ29),inactive: 0
8,KLC2 (UniProt Q9H0B6),inactive: 0
9,LOC728658,inactive: 0
10,LIN9 (UniProt Q5TKA1),inactive: 0
11,KIAA0999 (UniProt Q9Y2K2),inactive: 0
12,LIMD1 (UniProt Q9UGP4),inactive: 0
13,LRRC8C (UniProt Q8TDW0),inactive: 0
14,MAGEB2 (UniProt O15479),inactive: 0
15,MAN1B1 (UniProt Q9UKM7),inactive: 0
16,LRRC45 (UniProt Q96CN5),inactive: 0
17,KIF20B (UniProt Q96Q89),inactive: 0
18,KIAA1797 (UniProt Q5VW36),inactive: 0
19,LYST (UniProt Q99698),inactive: 0

row,Target,dose-dependent thermal stabilisation call
1,KIAA1627 (UniProt Q9HCE5),inactive: 0
2,KRAS (UniProt P01116),inactive: 0
3,LOC100128155,inactive: 0
4,LOC100129759,inactive: 0
5,KLC1 (UniProt Q07866),inactive: 0
6,LUZP6 (UniProt Q538Z0),inactive: 0
7,LYPLA1 (UniProt O75608),active: 1
8,LOC642451,inactive: 0
9,LRRC58 (UniProt Q96CX6),inactive: 0
10,LUC7L2 (UniProt Q9Y383),inactive: 0
11,LONP1 (UniProt P36776),inactive: 0
12,KIAA1430 (UniProt Q9P2B7),inactive: 0
13,LRP5 (UniProt O75197),inactive: 0
14,LACTB2 (UniProt Q53H82),inactive: 0
15,KIAA0907 (UniProt Q7Z7F0),inactive: 0
16,LTA4H (UniProt P09960),inactive: 0
17,LOC348262,inactive: 0
18,LMNA (UniProt P02545),inactive: 0

# Retrieved one by one from above, two records:
row,Target,dose-dependent thermal stabilisation call
10,LIN9 (UniProt Q5TKA1),inactive: 0
17,KIF20B (UniProt Q96Q89),inactive: 0
